For test [1], the target named is T1, IL23 produced by p40-Td cells (human T cells transduced with human IL12B p40) (human) (UniProt Q9NPF7+P29460). Nature of the test: sequestration of IL23 by soluble receptor (told again in the discussion).
Test [2] deals with T1, IL23 produced by p40-Td cells (human T cells transduced with human IL12B p40) (human). Nature of the test: sequestration of IL23 from p40-Td supernatant, read by IL17 release of murine splenocytes (FIG. 10).

The chains behind the UniProt entries cited, without tags or fusion partners. Where a name states a change or a piece, a line headed by the entry shows the natural chain unless it says otherwise. Residues count along the entry.
UniProt Q9NPF7: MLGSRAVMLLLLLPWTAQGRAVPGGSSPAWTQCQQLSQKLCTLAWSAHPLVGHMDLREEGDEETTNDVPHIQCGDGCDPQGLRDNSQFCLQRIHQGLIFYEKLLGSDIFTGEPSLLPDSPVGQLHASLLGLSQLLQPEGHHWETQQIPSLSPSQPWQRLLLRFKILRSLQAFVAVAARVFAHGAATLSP
UniProt P29460: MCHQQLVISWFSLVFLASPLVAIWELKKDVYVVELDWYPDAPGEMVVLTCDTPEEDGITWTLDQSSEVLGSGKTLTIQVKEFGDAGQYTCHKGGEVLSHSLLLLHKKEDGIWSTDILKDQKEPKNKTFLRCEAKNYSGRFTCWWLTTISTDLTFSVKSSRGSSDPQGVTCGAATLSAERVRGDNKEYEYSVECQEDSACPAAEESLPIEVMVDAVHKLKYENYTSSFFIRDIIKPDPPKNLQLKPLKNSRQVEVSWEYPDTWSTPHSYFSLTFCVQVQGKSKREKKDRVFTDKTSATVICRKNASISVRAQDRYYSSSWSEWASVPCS
UniProt Q5VWK5, residues 24-353: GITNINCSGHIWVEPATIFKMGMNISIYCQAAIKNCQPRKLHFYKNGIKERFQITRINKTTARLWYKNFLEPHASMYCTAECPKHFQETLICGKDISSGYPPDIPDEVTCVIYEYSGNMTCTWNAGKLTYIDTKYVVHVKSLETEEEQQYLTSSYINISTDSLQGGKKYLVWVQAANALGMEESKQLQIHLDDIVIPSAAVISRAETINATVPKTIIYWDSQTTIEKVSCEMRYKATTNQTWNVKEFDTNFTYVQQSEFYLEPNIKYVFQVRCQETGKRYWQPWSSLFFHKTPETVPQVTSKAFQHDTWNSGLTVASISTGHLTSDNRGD

These are yes or no findings as the source states them, for the method shown. Some entries that bind do so weakly or less than the wild type.

“soluble recombinant human IL23R (rhIL23R) (from UniProt Q5VWK5 24-353) (receptor)”: the binding entry in test [1] and in test [2] was “binds” throughout.

These data come from patent publication US20230127263A1.
